Results deposited as PubChem BioAssay AID1508587 (Peter MacCallum Cancer Centre, 2020).
Aim: 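Retest of knockdowns boosting BRAF inhibitor action on lactate release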 (follow-up of hits). Cell system: human WM266.4 melanoma cells with a BRAF V600 mutation. Knock-down reagent: single siRNA against human genes, 25 nM. Time to read-out: 96 h. Treatment: vemurafenib 300 nM (about IC25), given 48 h after transfection for 48 h. Read-out: 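Per-cell lactate from absorbance divided by DAPI nucleus counts, compared with and without vemurafenib, relative to non-targeting siRNA, mean of 2 replicates; nuclear counts also give cell number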. Reading the numbers: lactate per cell, drug vs no drug: higher = less drug-induced drop in lactate per cell. Active means: 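a duplex is active when its lactate-per-cell ratio with versus without drug falls under 0.55, i.e. 2 SD below non-targeting; a gene is confirmed if 2 or more of 4 duplexes pass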.
In all, the deposit lists about 1,600 reagents; this is a part drawn at random. 623 of them (39%) were called active. 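Calls are for each duplex; lactate ratios contain extreme outliers.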 Reagents against one gene are numbered here. Further read-outs or replicates are left out here.

With knock-down of ADGRG6 (adhesion G protein-coupled receptor G6) #1, the record shows lactate per cell, drug vs no drug 0.48; active.
ADGRG6 (adhesion G protein-coupled receptor G6) #2 scored lactate per cell, drug vs no drug 0.6; inactive.
Against ADGRG6 (adhesion G protein-coupled receptor G6) #3 the deposit lists lactate per cell, drug vs no drug 0.64; inactive.
With knock-down of ADGRG6 (adhesion G protein-coupled receptor G6) #4, the screen gave lactate per cell, drug vs no drug 0.62; inactive.
Against SNAPIN (SNAP associated protein) #1 the deposit lists lactate per cell, drug vs no drug 0.7; inactive.
SNAPIN (SNAP associated protein) #2 showed lactate per cell, drug vs no drug 0.82; inactive.
SNAPIN (SNAP associated protein) #3 gave lactate per cell, drug vs no drug 0.71; inactive.
SNAPIN (SNAP associated protein) #4 scored lactate per cell, drug vs no drug 0.48; active.
Depletion of VASP (vasodilator stimulated phosphoprotein) #1 came out at: lactate per cell, drug vs no drug 0.5; active.
With knock-down of VASP (vasodilator stimulated phosphoprotein) #2, the screen gave lactate per cell, drug vs no drug 0.34; active.
VASP (vasodilator stimulated phosphoprotein) #3 showed lactate per cell, drug vs no drug 0.62; inactive.
Knock-down of VASP (vasodilator stimulated phosphoprotein) #4 came out at: lactate per cell, drug vs no drug 0.9; inactive.
With knock-down of PENK (proenkephalin) #1, the record shows lactate per cell, drug vs no drug 0.16; active.
After knock-down of PENK (proenkephalin) #2 the results were lactate per cell, drug vs no drug 0.4; active.
PENK (proenkephalin) #3 showed lactate per cell, drug vs no drug 0.95; inactive.
Against PENK (proenkephalin) #4, the entry reads lactate per cell, drug vs no drug 0.6; inactive.
ATF6 (activating transcription factor 6) #1 gave lactate per cell, drug vs no drug 0.6; inactive.
Knock-down of ATF6 (activating transcription factor 6) #2 gave: lactate per cell, drug vs no drug 0.48; active.
Knock-down of ATF6 (activating transcription factor 6) #3 resulted in: lactate per cell, drug vs no drug 0.3; active.
ATF6 (activating transcription factor 6) #4 gave lactate per cell, drug vs no drug 0.48; active.
With knock-down of ATL3 (atlastin GTPase 3) #1, the record shows lactate per cell, drug vs no drug 0.61; inactive.
With knock-down of ATL3 (atlastin GTPase 3) #2, the record shows lactate per cell, drug vs no drug 0.62; inactive.
Knock-down of ATL3 (atlastin GTPase 3) #3 gave: lactate per cell, drug vs no drug 0.61; inactive.
Against ATL3 (atlastin GTPase 3) #4, the values are lactate per cell, drug vs no drug 0.72; inactive.
Silencing of LRRN4 (leucine rich repeat neuronal 4) #1 came out at: lactate per cell, drug vs no drug 0.22; active.
After knock-down of LRRN4 (leucine rich repeat neuronal 4) #2 the results were lactate per cell, drug vs no drug 0.45; active.
Against LRRN4 (leucine rich repeat neuronal 4) #3, the entry reads lactate per cell, drug vs no drug 0.64; inactive.
Depletion of LRRN4 (leucine rich repeat neuronal 4) #4 gave: lactate per cell, drug vs no drug 0.44; active.
For MNS1 (meiosis specific nuclear structural 1) #1, the entry reads lactate per cell, drug vs no drug 0.68; inactive.
Knock-down of MNS1 (meiosis specific nuclear structural 1) #2 resulted in: lactate per cell, drug vs no drug 0.53; active.
Against MNS1 (meiosis specific nuclear structural 1) #3, the values are lactate per cell, drug vs no drug 0.54; active.
For MNS1 (meiosis specific nuclear structural 1) #4, the values are lactate per cell, drug vs no drug 0.48; active.
Depletion of ZNF675 (zinc finger protein 675) #1 gave: lactate per cell, drug vs no drug 0.67; inactive.
Against ZNF675 (zinc finger protein 675) #2 the deposit lists lactate per cell, drug vs no drug 0.59; inactive.
Knock-down of ZNF675 (zinc finger protein 675) #3 came out at: lactate per cell, drug vs no drug 0.54; active.
After knock-down of ZNF675 (zinc finger protein 675) #4 the results were lactate per cell, drug vs no drug 0.3; active.
